Percent effect of library compounds

Data taken from ChEMBL document CHEMBL3988442, “University of Dundee, Small-Polar-MMV Screening Library” (2021).

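Growth of Mycobacterium tuberculosis over 3 days (7H9 medium with glucose and tyloxapol); the read-out is not stated. Concentration: 50 µM. The record gives no direction; compounds that gave an IC50 in retests scored well above the rest, so higher reads as more growth inhibition. Size under these conditions: about 69,000 compounds, about 760 of them at 50% or above in at least one test.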

Each number is a percent effect as filed. How 0% and 100% were set is not recorded. Most values in the screen are low, and negative values occur. This is an unselected part of the compounds tested. Two or more numbers in one place are separate tests of the same structure; such repeats can differ widely.

With CCc1ccc(S(=O)(=O)N2CCCn3ncnc32)s1 the screen gave -0.398%. For CCn1c(C)nnc1CN(C)C1CCN(CCOc2ccccc2)C1 (centres unmarked) the result was -17.27%. CC(=O)N1CCC(c2noc(C3CCC(=O)N3)n2)CC1 (centres unmarked) gave -11.39%. With Cc1cnc(C(=O)N2CCCC(c3nccn3Cc3cscn3)C2)cn1 (centres unmarked) the screen gave 6.7%. Cc1cccc(CN2CCC3(CC2)COC(COCC2CC2)C3)n1 (centres unmarked) read 18.48%. With Nc1ncc(C(=O)N2CCC3(CCCO3)CC2)c(-c2ccccc2)n1 the screen gave 17.01% and 3.676%. For Cc1cc(CN2CCN(C(=O)NCc3ccoc3)CC2)no1 the result was 3.523%.

FC(F)(F)CCc1ccnc(NCc2csc(N3CCOCC3)n2)n1 gave 11%. For CNC(=O)CN(C)C1CCN(c2ccc(Cl)cc2)CC1 the result was 3.297% and 30.34%. O=C(O)C(F)(F)F.O=C(O)C(F)(F)F.O=C(O)C(F)(F)F.[H][C@@]12CN(Cc3ccc(F)cc3)C[C@]1([H])OCCN2CCN1CCCC1 read 8.257% and -4.42%. Result for CCn1ccnc1CN1CCC(N(Cc2ncc(C)o2)C(C)=O)C1 (centres unmarked) was -40.33%. O=C(O)C(F)(F)F.[H][C@@]12CCC(=O)N(c3cnn(C)c3)[C@]1([H])CCN2CC1CCOCC1 read 15.75%. CC(C)n1nc2c(cc1=O)CN(CCOc1ccc(C#N)cc1)CC2 gave 27.51%. CCn1nc(C)cc1S(=O)(=O)N1CCC2(CC(=O)NC2=O)C1 (centres unmarked) gave 10.9%.

O=S(=O)(CCNCc1ccc2c(c1)CCO2)N1CCOCC1 gave -19.91%. With Cc1nccn1CCCNc1ncccc1C#N the screen gave -11.19%. Cc1nc(C2CCCN2CCCS(=O)(=O)c2ccccc2)no1 (centres unmarked) read -28.39%. With CCN(CCc1nc2cc(C)ccc2[nH]1)C(=O)[C@@H](N)Cc1c[nH]cn1 the screen gave -13.18%. For Cc1cc(C)cc(CNC(c2ccccc2)c2nccn2C)c1 (centres unmarked) the result was 16.59%. Result for CN1CC2(CCCN(c3nc(N)nc4c3CCCC4)C2)OC1=O (centres unmarked) was -7.781%. Cc1cc(NC(=O)NC(C)(C)c2nc(C)c(C)s2)no1 read 8.814%.

With Cn1nnc2c1CCN(Cc1nccs1)C2COCc1ccccc1.O=C(O)C(F)(F)F (centres unmarked) the screen gave -51.97%. With Cc1cc(CNCCNS(C)(=O)=O)sc1Br the screen gave -2.736%. Result for O=C1N(CC2CCCCC2)CCCC1(O)CN1CCc2[nH]ncc2C1 (centres unmarked) was 18.47%. With CC(C)CN1CCC(N2CCC(C(=O)N(C)C)CC2)CC1.O=C(O)C(F)(F)F.O=C(O)C(F)(F)F the screen gave 6.847%. COc1cc(C(=O)Nc2c(C)noc2C)ccc1C read -3.265%. Result for N#CC1(NC(=O)Cn2nnc(-c3cc4ccccc4o3)n2)CCCC1 was -1.589% and -34.4%. Result for CN1CCCN(c2cnn(Cc3ccc(C(C)(C)C)cc3)c(=O)c2)CC1 was -4.092% and 9.154%.

CCC(C)(CC(=O)OC)NC(=O)c1ccc2[nH]ccc2c1 (centres unmarked) read -2.637% and -6.225%. COc1ccc(-c2n[nH]cc2CN(C)CCc2scnc2C)c(F)c1 read 8.76%. Result for Nc1ncncc1-c1noc([C@@H]2CCCN2CCCc2ccccc2)n1 was 11.37% and -12.93%. With C[C@@H](O)CNC(=O)c1nc(CC(=O)Nc2ccccc2)no1 the screen gave -12.73% and -4.935%. O=C(NC1CCCC1)NC1CCc2[nH]c(=O)ccc2C1 (centres unmarked) gave -16.59% and -1.728%. For CC(=O)Nc1ncc(S(=O)(=O)Nc2ccc(F)cc2)s1 the result was 4.397%. CCN(CC1CCOC1)C(=O)NCc1nnc2n1CCC2 (centres unmarked) gave -0.4333%.

With COc1ncc(-c2nccn2CCN(C)C)cn1 the screen gave -40.84%. Result for COc1cc(C2CC(=O)Oc3cc(C)[nH]c(=O)c32)ccc1OCC(=O)O (centres unmarked) was 5.856%. Result for Cc1nc(N2CCOCC2)nc2c1CCN(c1nccs1)CC2 was 37.09% and -1.08%. COCC[C@]1(O)CCN(Cc2nc(C(C)C)cs2)C[C@H]1C read 7.067% and -2.123%. CCc1cnc(N2CCc3cc(C(=O)NC)c(N(C)C)nc3CC2)nc1.O=C(O)C(F)(F)F gave 8.457%. CCNC(=O)[C@@H]1C[C@@H](N)CN1C(=O)c1cc2ccccc2[nH]1 gave -13.74%. With CCNC(=O)NC1CN(Cc2ccncc2Cl)C[C@@H]1OC (some centres unmarked) the screen gave 7.148%.

Cc1ccc(C(=O)NCCS(=O)(=O)Cc2ccccc2)c(C)c1 read -4.769%. [H][C@]12CCC(=O)N(c3ccccc3)[C@@]1([H])CCN2C(=O)c1cscn1 gave -26.43%. O=C(O)C(F)(F)F.[H][C@@]12CCN(Cc3ccsc3)[C@]1([H])CC[C@H](C(=O)N1CCOCC1)O2 gave -18.45% and -4.225%. For CC(C)(C)n1ncc2c(=O)[nH]c(NC3CC=CC3)nc21 the result was 14.99%. For O=C(COc1cccc2c1CCC2=O)NCCOc1ccccc1 the result was -8.46% and -35.72%. Result for CCn1nc(C)c2nc(C)nc(NC3CCCC3)c21 was 14.42% and 29.92%. For O=S(=O)(C1CC1)N1CCC2(CC1)COC(COc1cccnc1)C2 (centres unmarked) the result was 30.93%.

With Cc1cnn(-c2ccc(C(=O)N3CCN(C)CC3C)cc2)c1 (centres unmarked) the screen gave 12.19%. COC1CCN(C(=O)C2CCCC2)CC(=O)N(C)c2ccccc21 (centres unmarked) read -37.27%. With COc1ccc(CN(C)[C@@H]2CN(C(=O)c3cccn3C)C[C@H]2O)cc1 the screen gave 9.396%. CCn1cc(S(=O)(=O)Nc2cccnc2-n2cccn2)nc1C read -3.469%. O=C(O)C(F)(F)F.[H][C@@]12CCCO[C@]1([H])[C@H](NC(=O)CC1CC1)CN(Cc1cnn(C)c1)C2 gave -53.11% and -11.88%. Result for Cc1ccc(C(=O)NC2CCN(CC(=O)N(C)c3ccccc3)CC2)o1 was 11.6%. Result for O=C(Nc1nccs1)NC1CCN(CC2CCCC2)CC1 was -17.1%.

For CC(CN1CCOCC1)NC(=O)c1cc(Cl)c2c(c1)OCCO2 (centres unmarked) the result was 21.89%. [H][C@@]12CCC(=O)N(CCC3=CCCCC3)[C@]1([H])CCN(S(C)(=O)=O)C2 gave -13.11%. COCCc1noc(CN(C)C2CCCN(c3ccc(C)nn3)C2)n1 (centres unmarked) read 2.335%. Cc1ccc2c(n1)N(CCn1cccn1)CCN(C(=O)NC(C)C)C2 gave -46.43%.

The first 7 entries again:

structure	percent effect
CCc1ccc(S(=O)(=O)N2CCCn3ncnc32)s1	-0.398%
CCn1c(C)nnc1CN(C)C1CCN(CCOc2ccccc2)C1 (centres unmarked)	-17.27%
CC(=O)N1CCC(c2noc(C3CCC(=O)N3)n2)CC1 (centres unmarked)	-11.39%
Cc1cnc(C(=O)N2CCCC(c3nccn3Cc3cscn3)C2)cn1 (centres unmarked)	6.7%
Cc1cccc(CN2CCC3(CC2)COC(COCC2CC2)C3)n1 (centres unmarked)	18.48%
Nc1ncc(C(=O)N2CCC3(CCCO3)CC2)c(-c2ccccc2)n1	17.01% and 3.676%
Cc1cc(CN2CCN(C(=O)NCc3ccoc3)CC2)no1	3.523%